Values of other authors as cited in patent US8580122B2, “Hybrid chemical/mechanical method and apparatus for inactivating and removing pharmaceuticals and other contaminants from water” (priority 2004, dated 2013).
Where two headings read alike, the source gives them in different places.

Settings: cited from earlier work

Cc1ccccc1-n1c(C)nc2ccccc2c1=O [Methaqualone]
soil concentration after composting (full-scale, after 14 weeks, from 210 mg kg^−1): < 100 mg/kg

CCCN(CCC)S(=O)(=O)c1ccc(C(=O)O)cc1 [Probenecid]
soil concentration after composting (full-scale, in 6 weeks, from 1160 mg kg^−1): 100 mg/kg
soil concentration after composting (pilot scale, mesophilic, within 20 weeks, from 5100 mg kg^−1): < 10 mg/kg
